Consider 1 substance from article doi:10.1101/2023.12.08.570772.

Amino acid sequences for entries named in this document (tags omitted). A change or cut given only in a name is not applied to a line headed by its entry.
UniProt Q9NS91, whole entry, looked up, stated change not applied: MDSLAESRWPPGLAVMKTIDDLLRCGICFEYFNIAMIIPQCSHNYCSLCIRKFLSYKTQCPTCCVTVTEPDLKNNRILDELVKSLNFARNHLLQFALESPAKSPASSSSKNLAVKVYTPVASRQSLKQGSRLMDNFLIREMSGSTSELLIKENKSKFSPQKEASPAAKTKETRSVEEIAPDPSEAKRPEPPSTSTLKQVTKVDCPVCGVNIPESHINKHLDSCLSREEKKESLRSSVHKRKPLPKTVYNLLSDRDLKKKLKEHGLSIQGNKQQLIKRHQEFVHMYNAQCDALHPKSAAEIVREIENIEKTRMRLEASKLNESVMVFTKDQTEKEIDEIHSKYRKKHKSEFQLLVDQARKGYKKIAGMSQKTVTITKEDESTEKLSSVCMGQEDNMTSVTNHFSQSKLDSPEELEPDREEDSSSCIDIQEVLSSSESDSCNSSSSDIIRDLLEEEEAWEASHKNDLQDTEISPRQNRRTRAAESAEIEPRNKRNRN
UniProt P43358, whole entry: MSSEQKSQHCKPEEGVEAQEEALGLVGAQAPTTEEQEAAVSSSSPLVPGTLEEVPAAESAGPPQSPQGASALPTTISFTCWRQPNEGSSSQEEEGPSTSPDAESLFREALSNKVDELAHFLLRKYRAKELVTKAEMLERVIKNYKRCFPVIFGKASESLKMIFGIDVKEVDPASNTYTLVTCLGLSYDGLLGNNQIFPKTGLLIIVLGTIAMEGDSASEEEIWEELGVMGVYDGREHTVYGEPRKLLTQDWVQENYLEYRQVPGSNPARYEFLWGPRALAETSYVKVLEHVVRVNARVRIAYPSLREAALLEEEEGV

What all share (test): pull-down
Test [1] addresses His-tagged full length RAD18 Y361D (human) (UniProt Q9NS91).
The target of test [2] is His-tagged full length RAD18 A357D (human) (UniProt Q9NS91).
In test [3] the target is His-tagged full length RAD18 F350D (human) (UniProt Q9NS91).
Test [4] addresses His-tagged full length RAD18 V354D (human) (UniProt Q9NS91).

Results are given in words; binding and its absence hold for the method and conditions named. In cells and extracts the contact can be indirect. Some binding calls cover weakened binding; strength is not graded here.

As for “untagged FL MAGEA4 WT (from UniProt P43358 1-317)”, the binding entry in test [1] was “binds weakly”; in test [2] it was “binds”; in test [3], “binds weakly”; in test [4], “binds”.
